PubChem BioAssay AID1508597, Cure First, 2020
Shown is an unselected part of the about 2,100 reagents, under one of the conditions tested. 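Calls flag viability under 80% in either arm, not effects specific to rucaparib; the reference for percent is not stated.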 A number with no mark means an inactive call. A reagent listed more than once was tested more than once; the source does not tell the runs apart. Not stated in the record: the 100% reference.

Screen: 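Survival screen with siRNA in ovarian cancer cells derived from patients, with or without rucaparib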 (primary screen)
Cell system: human ovarian carcinoma lines grown from tumours: OCI-P5x (papillary serous) and OCI-C5x (clear cell)
Knock-down reagent: siRNA pool against human genes, 1.25 pmol siRNA per well
Duration: 72 h or 96 h, depending on the cell culture
Challenge: rucaparib 20 µM (about IC30) or vehicle, present until read-out
Rucaparib or vehicle: Rucaparib
Cell line: OCI-C5x (clear cell)
Read-out: 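ATP luminescence measured at 72 or 96 h according to the culture, then normalised and expressed as percent viability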
Reading the numbers: viability, normalised: higher = more viable cells remaining
Hit rule: 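Active when normalised viability falls below 80 percent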
Meaning of the calls: active = viability under 80%; inactive = viability 80% or more

Gene | technical replicate | viability, normalised (%)
CAMKK2 (calcium/calmodulin dependent protein kinase kinase 2) | 1 | 47.3 (active)
CAMKK2 (calcium/calmodulin dependent protein kinase kinase 2) | 2 | 52.8 (active)
CAMKK2 (calcium/calmodulin dependent protein kinase kinase 2) | 3 | 56.7 (active)
TADA1 (transcriptional adaptor 1) | 1 | 79.3 (active)
TADA1 (transcriptional adaptor 1) | 2 | 56.9 (active)
TADA1 (transcriptional adaptor 1) | 3 | 44.6 (active)
NCOA2 (nuclear receptor coactivator 2) | 1 | 35.6 (active)
NCOA2 (nuclear receptor coactivator 2) | 2 | 37.7 (active)
NCOA2 (nuclear receptor coactivator 2) | 3 | 37.9 (active)
ATP7A (ATPase copper transporting alpha) | 1 | 60.6 (active)
ATP7A (ATPase copper transporting alpha) | 2 | 60.7 (active)
ATP7A (ATPase copper transporting alpha) | 3 | 46.4 (active)
PRDM5 (PR/SET domain 5) | 1 | 28.6 (active)
PRDM5 (PR/SET domain 5) | 2 | 27.4 (active)
PRDM5 (PR/SET domain 5) | 3 | 27 (active)
ENPP5 | 1 | 34.2 (active)
ENPP5 | 2 | 40.5 (active)
ENPP5 | 3 | 28.9 (active)
DCLRE1B (DNA cross-link repair 1B) | 1 | 50.3 (active)
DCLRE1B (DNA cross-link repair 1B) | 2 | 34.9 (active)
DCLRE1B (DNA cross-link repair 1B) | 3 | 42.2 (active)
CLDN2 (claudin 2) | 1 | 49.1 (active)
CLDN2 (claudin 2) | 2 | 29.4 (active)
CLDN2 (claudin 2) | 3 | 35.4 (active)
CAMK1 (calcium/calmodulin dependent protein kinase I) | 1 | 72.6 (active)
CAMK1 (calcium/calmodulin dependent protein kinase I) | 2 | 68.1 (active)
CAMK1 (calcium/calmodulin dependent protein kinase I) | 3 | 79 (active)
P2RY2 (purinergic receptor P2Y2) | 1 | 30.5 (active)
P2RY2 (purinergic receptor P2Y2) | 2 | 34.4 (active)
P2RY2 (purinergic receptor P2Y2) | 3 | 46.2 (active)
MED23 (mediator complex subunit 23) | 1 | 39.8 (active)
MED23 (mediator complex subunit 23) | 2 | 30.8 (active)
MED23 (mediator complex subunit 23) | 3 | 37.7 (active)
ANKK1 (ankyrin repeat and kinase domain containing 1) | 1 | 43.5 (active)
ANKK1 (ankyrin repeat and kinase domain containing 1) | 2 | 24.3 (active)
ANKK1 (ankyrin repeat and kinase domain containing 1) | 3 | 40.7 (active)
GRN (granulin precursor) | 1 | 60.4 (active)
GRN (granulin precursor) | 2 | 50.3 (active)
GRN (granulin precursor) | 3 | 50.4 (active)
CDH5 (cadherin 5) | 1 | 51.6 (active)
CDH5 (cadherin 5) | 2 | 74.4 (active)
CDH5 (cadherin 5) | 3 | 50.7 (active)
DGKG (diacylglycerol kinase gamma) | 1 | 42.8 (active)
DGKG (diacylglycerol kinase gamma) | 2 | 45.5 (active)
DGKG (diacylglycerol kinase gamma) | 3 | 37.5 (active)
TEK (TEK receptor tyrosine kinase) | 1 | 53.4 (active)
TEK (TEK receptor tyrosine kinase) | 2 | 70.2 (active)
TEK (TEK receptor tyrosine kinase) | 3 | 71.5 (active)
CSF1R (colony stimulating factor 1 receptor) | 1 | 52.5 (active)
CSF1R (colony stimulating factor 1 receptor) | 2 | 56.2 (active)
CSF1R (colony stimulating factor 1 receptor) | 3 | 49.7 (active)
PHF8 (PHD finger protein 8) | 1 | 65.8 (active)
PHF8 (PHD finger protein 8) | 2 | 44.2 (active)
PHF8 (PHD finger protein 8) | 3 | 44.2 (active)
ALDOA (aldolase, fructose-bisphosphate A) | 1 | 40.2 (active)
ALDOA (aldolase, fructose-bisphosphate A) | 2 | 32.9 (active)
ALDOA (aldolase, fructose-bisphosphate A) | 3 | 35.6 (active)
CAMK1D (calcium/calmodulin dependent protein kinase ID) | 1 | 65.5 (active)
CAMK1D (calcium/calmodulin dependent protein kinase ID) | 2 | 62.4 (active)
CAMK1D (calcium/calmodulin dependent protein kinase ID) | 3 | 73.4 (active)
SLC22A11 | 1 | 31.5 (active)
SLC22A11 | 2 | 23.9 (active)
SLC22A11 | 3 | 33.9 (active)
NR1H3 (nuclear receptor subfamily 1 group H member 3) | 1 | 42.5 (active)
NR1H3 (nuclear receptor subfamily 1 group H member 3) | 2 | 66 (active)
NR1H3 (nuclear receptor subfamily 1 group H member 3) | 3 | 47.7 (active)
TJP3 (tight junction protein 3) | 1 | 59.3 (active)
TJP3 (tight junction protein 3) | 2 | 52.6 (active)
TJP3 (tight junction protein 3) | 3 | 48.3 (active)
DDB1 (damage specific DNA binding protein 1) | 1 | 40.3 (active)
DDB1 (damage specific DNA binding protein 1) | 1 | 36.1 (active)
DDB1 (damage specific DNA binding protein 1) | 2 | 32.4 (active)
DDB1 (damage specific DNA binding protein 1) | 2 | 63.3 (active)
DDB1 (damage specific DNA binding protein 1) | 3 | 35.7 (active)
DDB1 (damage specific DNA binding protein 1) | 3 | 26.6 (active)

Already shown: an excerpt of the list.
Gene | technical replicate | viability, normalised (%)
DGKG (diacylglycerol kinase gamma) | 3 | 37.5 (active)
TEK (TEK receptor tyrosine kinase) | 1 | 53.4 (active)
TEK (TEK receptor tyrosine kinase) | 2 | 70.2 (active)
TEK (TEK receptor tyrosine kinase) | 3 | 71.5 (active)
CSF1R (colony stimulating factor 1 receptor) | 1 | 52.5 (active)
CSF1R (colony stimulating factor 1 receptor) | 2 | 56.2 (active)
CSF1R (colony stimulating factor 1 receptor) | 3 | 49.7 (active)
